# Reference: PMC3197150
# Chains of the proteins cited; added tags and fusions are not shown.
# UniProt P38873: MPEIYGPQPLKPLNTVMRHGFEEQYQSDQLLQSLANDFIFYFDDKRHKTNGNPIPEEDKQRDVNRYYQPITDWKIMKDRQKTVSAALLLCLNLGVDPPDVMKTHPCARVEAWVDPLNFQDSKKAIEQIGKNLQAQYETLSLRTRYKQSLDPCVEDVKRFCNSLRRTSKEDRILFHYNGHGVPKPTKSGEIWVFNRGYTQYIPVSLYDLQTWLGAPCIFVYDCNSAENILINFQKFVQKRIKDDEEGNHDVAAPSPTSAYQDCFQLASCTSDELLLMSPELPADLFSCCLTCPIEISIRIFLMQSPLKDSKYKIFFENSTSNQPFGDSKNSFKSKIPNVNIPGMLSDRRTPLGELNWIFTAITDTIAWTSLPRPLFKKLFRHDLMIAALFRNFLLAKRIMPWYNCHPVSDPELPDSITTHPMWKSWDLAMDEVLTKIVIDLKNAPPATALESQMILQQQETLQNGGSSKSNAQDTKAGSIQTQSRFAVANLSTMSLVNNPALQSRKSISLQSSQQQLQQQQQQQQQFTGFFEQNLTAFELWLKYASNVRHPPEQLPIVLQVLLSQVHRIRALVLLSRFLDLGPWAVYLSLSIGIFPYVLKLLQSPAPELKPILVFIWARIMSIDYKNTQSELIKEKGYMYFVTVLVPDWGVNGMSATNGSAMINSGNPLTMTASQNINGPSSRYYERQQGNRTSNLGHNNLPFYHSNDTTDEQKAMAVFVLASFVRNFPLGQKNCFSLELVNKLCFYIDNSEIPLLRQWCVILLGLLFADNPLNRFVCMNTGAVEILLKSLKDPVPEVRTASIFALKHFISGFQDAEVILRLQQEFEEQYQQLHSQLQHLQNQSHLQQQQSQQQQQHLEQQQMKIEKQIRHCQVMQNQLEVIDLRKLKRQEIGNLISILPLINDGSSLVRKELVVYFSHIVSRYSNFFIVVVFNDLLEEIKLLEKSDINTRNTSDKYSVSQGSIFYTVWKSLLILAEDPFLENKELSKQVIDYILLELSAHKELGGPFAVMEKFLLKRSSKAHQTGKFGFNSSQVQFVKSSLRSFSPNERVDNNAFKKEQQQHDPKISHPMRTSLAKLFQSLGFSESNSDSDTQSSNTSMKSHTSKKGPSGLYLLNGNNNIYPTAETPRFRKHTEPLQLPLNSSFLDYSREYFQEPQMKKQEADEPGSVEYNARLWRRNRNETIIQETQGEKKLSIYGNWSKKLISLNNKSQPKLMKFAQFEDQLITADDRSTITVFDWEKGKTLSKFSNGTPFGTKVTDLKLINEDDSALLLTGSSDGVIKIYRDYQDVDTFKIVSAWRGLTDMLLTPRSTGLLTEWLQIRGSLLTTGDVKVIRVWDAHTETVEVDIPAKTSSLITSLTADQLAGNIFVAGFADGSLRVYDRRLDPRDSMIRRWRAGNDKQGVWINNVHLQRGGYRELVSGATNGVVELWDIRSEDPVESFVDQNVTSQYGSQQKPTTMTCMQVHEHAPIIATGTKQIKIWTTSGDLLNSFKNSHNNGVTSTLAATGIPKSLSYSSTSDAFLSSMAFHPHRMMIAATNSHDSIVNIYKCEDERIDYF
# B1: Lsp1p (protein, UniProt Q12230 1-341)
# chain: MHRTYSLRNQRAPTAAELQAPPPPPSSTKSKFFGKASIASSFRKNAAGNFGPELARKLSQLVKTEKGVLRAMEVVASERREAAKQLSLWGADNDDDVSDVTDKLGVLIYELGELQDQFIDKYDQYRVTLKSIRNIEASVQPSRDRKEKITDEIAHLKYKDPQSTKIPVLEQELVRAEAESLVAEAQLSNITREKLKAAYSYMFDSLRELSEKFALIAGYGKALLELLDDSPVTPGEARPAYDGYEASRQIIMDAESALESWTLDMAAVKPTLSFHQTVDDVYEDEDGEEEEEPEIQNGDIPGQVVEEEEVEWTTEVPVDDEAHEADHHVSQNGHTSGSENI
# Biological target: Kog1p, C-terminally FLAG-tagged (KOG1-FLAG) (S. cerevisiae) (UniProt P38873)
# Assay: affinity purification with mass spectrometry; KOG1-flag captured from yeast lysate (batch glucose or glucose-limited chemostat cultures) on flag antibody conjugated to magnetic protein G beads, not more than 45 min at 4°C; lysis buffer 50 mM HEPES pH 7.5, 150 mM KCl, 0.5% Tween 20; 5 short washes with added 200 mM NaCl; bands cut from SDS gels, nano HPLC/MS/MS
binder,measurement,value
B1,binding,binds

# No constants are given. Whether binding was seen depends on the method and setting. In cells and extracts the contact can be indirect. These calls come from enrichment with a bait or labelling near it, and not all partners need be listed.
